{"source": "PubChem BioAssay AID720505 (Drosophila RNAi Screening Center, 2013)", "assay": "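Knock-downs that reduce calcium influx once internal stores are emptied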 (primary screen)", "system": "Drosophila S2R+ cells", "reagents": "long dsRNA against Drosophila genes", "challenge": "thapsigargin (2 µM) in calcium-free buffer to empty internal stores, then 2 mM calcium added back", "read-out": "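Stores emptied by 2 µM thapsigargin without calcium, then 2 mM calcium re-added; fluo-4 fluorescence followed by FLIPR in 384-well plates, per-well averaged endpoint, raw; two screen passes, some wells retested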", "direction": "calcium signal: higher = more calcium entry after store depletion", "rule for the call": "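Knock-downs counted as hits when calcium entry dropped relative to STIM1 positive and Rho1 negative controls present on each plate; roughly 1500 genes called, with reductions of differing size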", "calls": "active = called as lowering calcium entry; inactive = not called", "note": "The screen tested about 20,000 reagents; below is a random part of those with a known target gene and a result. Over the whole deposit, about 2,100 (10%) got an active call. 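Raw plate signals without normalisation; calls rest on control-based scores that were not deposited; replicate 2 separates called from uncalled poorly.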 Entries without a mark were called inactive. Not stated in the record: the amount of reagent, the time to read-out."}
{"Target gene":"mRpL13","amplicon":"DRSC02076","calcium signal, replicate 1":110,"calcium signal, replicate 2":116}
{"Target gene":"CG15760","amplicon":"DRSC19725","calcium signal, replicate 1":"61.7 (active)","calcium signal, replicate 2":109}
{"Target gene":"SRPK","amplicon":"DRSC07090","calcium signal, replicate 1":"80.4 (active)","calcium signal, replicate 2":102}
{"Target gene":"CG13157","amplicon":"DRSC06282","calcium signal, replicate 1":130,"calcium signal, replicate 2":209}
{"Target gene":"CG4691","amplicon":"DRSC01950","calcium signal, replicate 1":121,"calcium signal, replicate 2":96.9}
{"Target gene":"CG12560","amplicon":"DRSC02174","calcium signal, replicate 1":118,"calcium signal, replicate 2":134}
{"Target gene":"nAChRbeta3","amplicon":"DRSC00325","calcium signal, replicate 1":123,"calcium signal, replicate 2":162}
{"Target gene":"CG14435","amplicon":"DRSC17928","calcium signal, replicate 1":231,"calcium signal, replicate 2":146}
{"Target gene":"CG14435","amplicon":"DRSC23282","calcium signal, replicate 1":104,"calcium signal, replicate 2":142}
{"Target gene":"CG3776","amplicon":"DRSC04417","calcium signal, replicate 1":123,"calcium signal, replicate 2":101}
{"Target gene":"beat-IIa","amplicon":"DRSC14813","calcium signal, replicate 1":138,"calcium signal, replicate 2":181}
{"Target gene":"beat-IIa","amplicon":"DRSC14814","calcium signal, replicate 1":162,"calcium signal, replicate 2":220}
{"Target gene":"CG30375","amplicon":"DRSC06834","calcium signal, replicate 1":158,"calcium signal, replicate 2":97}
{"Target gene":"CG2129","amplicon":"DRSC18209","calcium signal, replicate 1":91.2,"calcium signal, replicate 2":71.9}
{"Target gene":"yem","amplicon":"DRSC14865","calcium signal, replicate 1":188,"calcium signal, replicate 2":145}
{"Target gene":"yem","amplicon":"DRSC17097","calcium signal, replicate 1":162,"calcium signal, replicate 2":159}
{"Target gene":"CG7789","amplicon":"DRSC16312","calcium signal, replicate 1":104,"calcium signal, replicate 2":144}
{"Target gene":"prc","amplicon":"DRSC11385","calcium signal, replicate 1":117,"calcium signal, replicate 2":111}
{"Target gene":"cert","amplicon":"DRSC09674","calcium signal, replicate 1":"63.1 (active)","calcium signal, replicate 2":82}

Entries listed so far called active:
{"Target gene":"CG15760","amplicon":"DRSC19725","calcium signal, replicate 1":"61.7 (active)","calcium signal, replicate 2":109}
{"Target gene":"SRPK","amplicon":"DRSC07090","calcium signal, replicate 1":"80.4 (active)","calcium signal, replicate 2":102}
{"Target gene":"cert","amplicon":"DRSC09674","calcium signal, replicate 1":"63.1 (active)","calcium signal, replicate 2":82}
